Results deposited as PubChem BioAssay AID1259308 (NCATS, 2017)

- Screen: 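Candidate targets for better recombinant protein yield in mammalian cells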 (primary screen)
- System: human HEK293 embryonic kidney cells stably expressing firefly luciferase (HEK-CMV-Luc2-Hygro)
- Reagent: single siRNA against human genes, 0.8 pmol siRNA per well
- Duration: 72 h
- Read-out: 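Reporter luminescence and viable-cell signal on separate replicate plates, given as percent of non-targeting control and median/MAD z-scores, plus per-cell luciferase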
- Direction: total luciferase, z-score and total luciferase, % of control: higher = more reporter protein produced; luciferase per cell, z-score: higher = more reporter output per viable cell; viable cells, % of control: higher = more viable cells
- Active means: 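An siRNA counts as active if its total luciferase robust z-score exceeds 3; genes with two or more such siRNAs out of three were retested with fresh siRNAs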
- Calls: active = raised luciferase; inactive = no rise
The deposit covers about 59,000 reagents; this is a random part of them. Of all reagents, about 1,510 (2.6%) are marked active. 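Calls use total luciferase alone and ignore viability, so some active siRNAs may act by altering cell number.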 Unmarked entries are inactive. Reagents against one gene are numbered here.

gene symbol	reagent	total luciferase, z-score	total luciferase, % of control	luciferase per cell, z-score	viable cells, % of control
PHYHIPL (GeneID 84457)	1	0.894	99.7	0.851	89
PHYHIPL (GeneID 84457)	2	-0.789	66.2	0.51	64.7
PHYHIPL (GeneID 84457)	3	-1.42	53.5	-1.47	88.1
MIS18BP1 (GeneID 55320)	1	3.06 (active)	143	2.17	90
MIS18BP1 (GeneID 55320)	2	-0.0672	80.6	-0.842	112
MIS18BP1 (GeneID 55320)	3	0.902	99.8	1.02	85.4
HOXA3 (GeneID 3200)	1	-0.728	67.4	-0.456	84.9
HOXA3 (GeneID 3200)	2	-0.0983	79.9	-0.484	101
HOXA3 (GeneID 3200)	3	0.474	91.3	0.688	85.1
SRP9P1 (GeneID 653226)	1	0.0116	82.1	-0.567	107
SRP9P1 (GeneID 653226)	2	-0.062	80.7	0.00989	89.9
SRP9P1 (GeneID 653226)	3	0.464	91.1	-0.296	110
MT1B (GeneID 4490)	1	0.0276	82.4	0.224	86.9
MT1B (GeneID 4490)	2	0.59	93.6	0.244	98.1
MT1B (GeneID 4490)	3	1.89	120	1.11	99.6
MRPS14 (GeneID 63931)	1	0.671	95.2	0.456	94.4
MRPS14 (GeneID 63931)	2	-0.607	69.8	-0.468	88.2
MRPS14 (GeneID 63931)	3	-1.43	53.5	-0.565	69.4
NBPF6 (GeneID 653149)	1	1.16	105	1.82	72.6
NBPF6 (GeneID 653149)	2	-0.697	68	-0.921	96.9
NBPF6 (GeneID 653149)	3	-0.1	79.9	-0.498	102
NDUFB1 (GeneID 4707)	1	-0.493	72.1	0.153	77.4
NDUFB1 (GeneID 4707)	2	-0.762	66.7	-1.05	98.3
NDUFB1 (GeneID 4707)	3	1.56	113	1.5	85.2
MSTO1 (GeneID 55154)	1	-0.13	79.3	0.321	81.4
MSTO1 (GeneID 55154)	2	1.17	105	1.43	80.6
MSTO1 (GeneID 55154)	3	-0.68	68.4	0.314	70.3
KLHL8 (GeneID 57563)	1	-0.157	78.8	-0.263	94.3
KLHL8 (GeneID 57563)	2	-0.306	75.8	-0.651	101
KLHL8 (GeneID 57563)	3	-1.26	56.9	-1.35	90.6
NREPP1 (GeneID 645877)	1	-0.34	75.1	0.169	80.3
NREPP1 (GeneID 645877)	2	-0.899	64	-1.08	95
NREPP1 (GeneID 645877)	3	1.87	119	1.25	95.9
SPTBN2 (GeneID 6712)	1	-1.38	54.3	-1.53	91
SPTBN2 (GeneID 6712)	2	0.466	91.2	0.272	94.8
SPTBN2 (GeneID 6712)	3	0.566	93.1	0.742	85.6
TDRD5 (GeneID 163589)	1	-0.228	77.4	-0.247	92.3
TDRD5 (GeneID 163589)	2	-0.704	67.9	-1.04	99.7
TDRD5 (GeneID 163589)	3	-0.355	74.8	-0.609	98.2
UBLCP1 (GeneID 134510)	1	0.112	84.1	0.33	86.2
UBLCP1 (GeneID 134510)	2	0.18	85.5	-0.0587	97
UBLCP1 (GeneID 134510)	3	-1.68	48.4	-1.56	81.6
PYGO2 (GeneID 90780)	1	-2.55	31.2	-2	59
PYGO2 (GeneID 90780)	2	1.26	107	1.06	90.4
PYGO2 (GeneID 90780)	3	0.85	98.8	0.995	85
PI4K2A (GeneID 55361)	1	1.52	112	2.4	66.7
PI4K2A (GeneID 55361)	2	0.373	89.3	0.408	89.6
PI4K2A (GeneID 55361)	3	0.112	84.1	0.521	82
UBL4A (GeneID 8266)	1	-0.000938	81.9	1.6	60
UBL4A (GeneID 8266)	2	0.745	96.7	1.48	73.2
UBL4A (GeneID 8266)	3	0.04	82.7	0.281	85.8
PIWIL1 (GeneID 9271)	1	-0.295	76	-0.344	93
PIWIL1 (GeneID 9271)	2	-2.64	29.4	-3.24	77.2
PIWIL1 (GeneID 9271)	3	3.13 (active)	144	1.93	96.9
TICRR (GeneID 90381)	1	-0.405	73.8	0.34	75.4
TICRR (GeneID 90381)	2	-0.258	76.8	-0.361	94.3
TICRR (GeneID 90381)	3	-1.81	45.8	-1.77	81.5
